Source: patent US20200147070A1, “INDUCING PHOSPHOLIPIDOSIS FOR ENHANCING THERAPEUTIC EFFICACY” (Nextcea Inc., priority 2017, published 2020)

Conditions: amiodarone 150 mg/kg/day co-administered with fluoxetine 10 mg/kg/day, 2 weeks, vs amiodarone alone

amiodarone concentration in the heart: increased
SMILES: CCCCc1oc2ccccc2c1C(=O)c1cc(I)c(OCCN(CC)CC)c(I)c1 [amiodarone]
